# Test results: PubChem BioAssay AID652180 (National Center for Advancing Translational Sciences (NCATS), 2013)
# The inconclusive results got no clear call from the source; some entries with a clear call stand among them for comparison. A potency beside an inconclusive call is a rough fit, not a confirmed value. Calls of active or inactive are those of the source. Calls follow the shape of the dose curve; as a rule, active = well fitted inhibition curve with a large enough effect; inconclusive = small, poorly fitted or top-dose-only effect; inactive = no such curve, though single readings can be large or run the other way.
# Assay: qHTS Assay for Lipid Storage Modulators: 3T3L1 Assay against Probe and Analogs
# Details: 3T3-L1 lipid droplets, BODIPY imaging, oleic acid, 18-24 h
# From the text: Storing lipids as a reservoir for energy or the anabolism of elementary metabolites is a common feature of probably all cells and is conserved from bacteria to humans. The universal cellular lipid storage organelle is the so-called lipid storage droplet (LD). Although ubiquitous, LDs share a simple structure composed of a hydrophobic core that harbors the storage lipids, which is shielded by a droplet-specific phospholipid monolayer to which proteins are attached. The current model of LD biogenesis involves an incorporation of the lipid core into the membrane leaflets of the endoplasmic reticulum (ER) followed by a subsequent budding-like maturation of a LD, which ultimately pinches off. Once released, LD volume can increase by localized lipogenesis or fusion of existing droplets. Storage lipids are re-mobilized enzymatically by lipase activity. Lipase regulation in the adipocyte is heavily studied and involves multiple components including catecholamine signaling, the LD-associated proteins Perilipin and comparative gene identification-58 (CGI-58) and at least two lipases named hormone sensitive lipase (HSL) and adipocyte triglyceride lipase (ATGL). LD regulation outside of the adipocyte is poorly understood and only few components are known. However, there is an urgent need to learn more about ectopic fat depots as mislocalized storage of lipids, for example in the liver or muscle, is an eminent health problem associated with insulin resistance or the metabolic syndrome. We developed a laser-scanning cytometer assay to enable 1,536-well screening and combined the results of the small molecules screen with an RNAi database based on lipid storage. In this assay we tested analogs of the probe against a mammalian cell line (3T3L1), to see if these small molecules could disrupt lipid storage. NIH Molecular Libraries Probe Production Centers Network [MLPCN] NIH Chemical Genomics Center [NCGC] MLPCN Grant: MH085686 Assay Submitter (PI): Mathias Beller, Max-Planck-Institut fur Biophysikalische Chemie
# 3T3L1 cells were obtained from ATCC (CL-173). 4 uL of cells at 1.25 X 105 cell/mL were dispensed into 1536 well Poly-D-Lysine coated black with clear bottom imaging plates (Corning, #7356) to obtain 500 cells/well, and cultured at 37 °C, 95% humidity, and 5% CO2 overnight. The culture medium used was OPTI-MEM containing 5% fetal bovine serum (FBS). Triacsin C (Sigma-Aldrich T-4540), an inhibitor of long-chain fatty acyl CoA synthetase that blocks synthesis of triglycerides, was used as a positive control for lipid under-storage. A total of 23 nL of compounds dissolved in DMSO at different concentrations were transferred to the assay plates using a Kalypsys 1536-pin tool, the final DMSO concentration was 0.46%. One microliter of oleic acid at 400 uM (Calbiochem, #4954) was added to induce lipid droplet formation in the cells, and the plates were lidded. After 18-24 hours of incubation at 37 °C, 95% humidity, and 5% CO2, cells were fixed (8 % paraformaldehyde in PBS, 30 min, room temperature), washed three times with PBS, then stained for lipid droplet and nucleus using 4uL of PBS solution containing BODIPY lipid dye 493/503 (1:2000 dilution, Life Technologies, #3922) and Hoechst 33342 (1:1000, Life Technologies, #H3570) with Washer dispenser EL406(Biotek). Images were acquired using InCell 2000 (GE). Number of cells, number of lipids and sizes of lipids were analysis using GE Investigator software.
row,SMILES,Potency
1,CCOC(=O)C1CCN(C(=O)C2(NC(=O)Nc3ccccc3Cl)CCCC2)CC1,"inconclusive: 587 nM [inhibitor, full curve]"
2,CCOc1ccc(CCNC(=O)c2cc3ccccc3n2Cc2cccc(C)c2)cc1OCC,"inconclusive: 23.5 nM [inhibitor, full curve, poor fit]"
3,CCOc1ccc(CCNC(=O)c2cc3ccccc3n2CCN2CCOCC2)cc1OCC,"inconclusive: 332 nM [inhibitor, full curve]"
4,CCOc1ccc(CCNC(=O)c2cc3ccccc3n2Cc2cccc(C)n2)cc1OCC,"inconclusive: 10.5 nM [inhibitor, full curve]"
5,CCOc1ccc(CCNC(=O)c2cc3sccc3n2CCN(C)C)cc1OCC,"inconclusive: 662 nM [inhibitor, full curve, poor fit]"
6,CCOc1ccc(CCNC(=O)c2cc3cccnc3n2Cc2cccc(C)n2)cc1OCC,"inconclusive: 469 nM [inhibitor, full curve, poor fit]"
7,CCOc1ccc(CCNC(=O)c2ccccc2)cc1OCC,active: 2350 nM
8,CCOc1ccc(CCNC(=O)c2ccc(Oc3ccccc3)cc2)cc1OCC,active: 246 nM
9,CCOc1ccc(CCNC(=O)c2cc3sccc3n2Cc2ccc(F)cc2F)cc1OCC,active: 23.5 nM
10,CCOc1ccc(CCNC(=O)c2cc3ccccc3n2Cc2ccccn2)cc1OCC,active: 46.9 nM
11,CCOc1ccc(CCNC(=O)c2ccc(C(=O)c3ccccc3)cc2)cc1OCC,"inconclusive: 1660 nM [inhibitor, full curve, poor fit]"
